The record followed here is publication PMC4164784, “4E-BPs require non-canonical 4E-binding motifs and a lateral surface of eIF4E to repress translation” (Nature Communications, 2014).

In this assay the target is T1, eIF4E (residues 69–248), purified (Drosophila melanogaster) (UniProt P48598).
T1 sequence: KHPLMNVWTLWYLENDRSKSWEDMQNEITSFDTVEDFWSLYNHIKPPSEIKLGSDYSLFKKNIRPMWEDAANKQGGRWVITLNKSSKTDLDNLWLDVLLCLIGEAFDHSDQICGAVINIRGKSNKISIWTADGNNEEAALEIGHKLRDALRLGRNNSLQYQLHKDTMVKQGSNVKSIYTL
Kind of assay: ITC; VP-ITC, 20 °C; eIF4E (69–248, WT or mutant, 1–20 μM) in the cell, tenfold concentrated GB1-stabilized peptides titrated in; 20 mM Na-phosphate pH 7.0, 150 mM NaCl; one-site binding model; both purified.

No constants are given. Whether binding was seen depends on the method and setting.

For the substance “4E-T L+NC peptide fused C-terminally to GB1 (Drosophila melanogaster) (domain or fragment)”, the binding entry is listed as “no binding (tested: 200 μM peptide titrated in)”. The value for “Thor L+NC peptide fused C-terminally to GB1 (Drosophila melanogaster) (domain or fragment)” was “no binding (tested: 200 μM peptide titrated in)”.
